Assay results as given in patent publication US12685733B2, “Indole molecules and use thereof in the inhibition of DNA polymerases” (BioVentures, LLC, priority 2019, dated 2026).
Some entries share one result that the patent states for a list of compounds. For at least one compound, name, drawing or mass did not settle the structure.

Legend:
[1] = biological target: T1, hpol η (Homo sapiens, UniProt Q9Y253); test: Fluorescence anisotropy DNA binding assay; settings: inhibitor concentration near the IC50 for pol activity
T1 construct: hpol η (residues 1-437); made in house
T1 sequence (Q9Y253 1-437): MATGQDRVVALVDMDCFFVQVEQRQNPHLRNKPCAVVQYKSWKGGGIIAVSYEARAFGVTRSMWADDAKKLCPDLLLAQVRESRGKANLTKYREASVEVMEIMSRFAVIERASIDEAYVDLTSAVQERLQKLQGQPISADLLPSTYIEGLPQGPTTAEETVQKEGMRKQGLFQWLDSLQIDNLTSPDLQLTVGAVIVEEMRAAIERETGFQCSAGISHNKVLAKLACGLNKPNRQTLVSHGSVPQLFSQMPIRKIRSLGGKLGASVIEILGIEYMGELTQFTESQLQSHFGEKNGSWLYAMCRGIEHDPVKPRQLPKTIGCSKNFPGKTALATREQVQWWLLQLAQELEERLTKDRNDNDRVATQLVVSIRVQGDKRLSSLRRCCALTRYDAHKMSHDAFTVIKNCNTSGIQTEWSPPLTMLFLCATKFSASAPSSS

[2] = biological target: T2, hpol κ (Homo sapiens, UniProt Q9UBT6); test: Fluorescence anisotropy DNA binding assay; design: hpol κ (residues 19-526); made in house; settings: inhibitor concentration near the IC50 for pol activity
T2 sequence (Q9UBT6 19-526): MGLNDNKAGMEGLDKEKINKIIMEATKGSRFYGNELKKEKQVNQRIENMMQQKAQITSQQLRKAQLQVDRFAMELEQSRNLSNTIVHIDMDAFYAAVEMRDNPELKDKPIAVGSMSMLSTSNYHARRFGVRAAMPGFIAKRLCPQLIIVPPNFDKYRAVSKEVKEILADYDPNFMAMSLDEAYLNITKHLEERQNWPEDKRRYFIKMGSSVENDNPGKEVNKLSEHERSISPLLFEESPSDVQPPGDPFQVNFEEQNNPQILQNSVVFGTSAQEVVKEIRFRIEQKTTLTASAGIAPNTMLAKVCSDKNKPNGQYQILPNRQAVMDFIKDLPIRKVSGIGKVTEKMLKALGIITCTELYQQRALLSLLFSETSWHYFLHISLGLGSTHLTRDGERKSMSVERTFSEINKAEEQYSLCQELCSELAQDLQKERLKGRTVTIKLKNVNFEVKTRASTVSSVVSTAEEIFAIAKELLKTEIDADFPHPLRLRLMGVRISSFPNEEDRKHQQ

SMILES | increase of KD,DNA of hpol η for p/t-DNA [1] | increase of equilibrium dissociation constant (KD,DNA) of hpol κ for p/t-DNA [2]
O=C1NC(=S)NC(=O)C1=Cc1cn(Cc2ccc3ccccc3c2)c2ccc(Cl)cc12 [IBA-32] | 20-30% | 100-200%
Cl.[H]/N=C(\N)NN=Cc1cn(C(=O)c2cccc3ccccc23)c2ccc(Cl)cc12 [IAG-10, (E)-2-((1-(1-naphthoyl)-5-chloro-1H-indol-3-y1)methylene)hydrazine-1-carboximidamide hydrochloride] | 20-30% | 100-200%
